Assay results published in PMC6239283.
No constants are given. Whether binding was seen depends on the method and setting. For some of these results: In cells and extracts the contact can be indirect. For some of these results: A result given as binding can be weak or reduced; the word gives no strength. Where a sequence is shown, tags or fusion partners need not be part of it.

Experiments:
[1] = molecular target: T1, OsTGA3 (BiFC split-YFP fusion) (rice (Oryza sativa)) (UniProt Q6IVC3); assay: split reporter; BiFC in rice protoplasts transfected using PEG; OsTGAs fused to cYFP (and nYFP for dimer tests), NHs fused to nYFP; reconstituted YFP seen by confocal microscopy
T1 sequence: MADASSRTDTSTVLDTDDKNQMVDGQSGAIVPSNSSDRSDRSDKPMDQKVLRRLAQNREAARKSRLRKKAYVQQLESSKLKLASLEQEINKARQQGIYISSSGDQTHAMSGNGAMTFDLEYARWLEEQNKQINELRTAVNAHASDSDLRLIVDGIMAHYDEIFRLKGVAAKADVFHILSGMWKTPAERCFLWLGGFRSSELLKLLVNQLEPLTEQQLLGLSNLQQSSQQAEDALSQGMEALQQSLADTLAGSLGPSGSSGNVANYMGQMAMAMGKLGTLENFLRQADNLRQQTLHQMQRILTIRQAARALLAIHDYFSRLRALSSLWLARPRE

[2] = molecular target: T2, OsTGA5 (yeast two-hybrid fusion) (rice (Oryza sativa)) (UniProt Q0JNL3); assay: two-hybrid; … Y2H system (Clontech); OsTGAs in pGBKT7 (bait), NHs or OsTGAs in pGADT7 (prey); co-transformed into yeast; growth on SD without leucine, tryptophan and histidine with 1 to 10 mM 3-AT; images on the third day
T2 sequence: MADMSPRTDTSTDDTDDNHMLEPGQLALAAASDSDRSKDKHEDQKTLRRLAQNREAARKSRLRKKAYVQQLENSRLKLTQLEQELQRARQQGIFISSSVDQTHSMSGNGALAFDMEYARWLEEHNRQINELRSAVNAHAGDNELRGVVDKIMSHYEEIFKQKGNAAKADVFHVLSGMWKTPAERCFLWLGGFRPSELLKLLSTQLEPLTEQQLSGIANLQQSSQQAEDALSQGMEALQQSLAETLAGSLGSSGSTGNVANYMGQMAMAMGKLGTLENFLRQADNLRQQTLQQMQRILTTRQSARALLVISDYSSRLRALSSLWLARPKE

[3] = molecular target: T3, OsTGA2 (yeast two-hybrid fusion) (rice (Oryza sativa)) (UniProt Q6IVC2); assay: as above
T3 sequence: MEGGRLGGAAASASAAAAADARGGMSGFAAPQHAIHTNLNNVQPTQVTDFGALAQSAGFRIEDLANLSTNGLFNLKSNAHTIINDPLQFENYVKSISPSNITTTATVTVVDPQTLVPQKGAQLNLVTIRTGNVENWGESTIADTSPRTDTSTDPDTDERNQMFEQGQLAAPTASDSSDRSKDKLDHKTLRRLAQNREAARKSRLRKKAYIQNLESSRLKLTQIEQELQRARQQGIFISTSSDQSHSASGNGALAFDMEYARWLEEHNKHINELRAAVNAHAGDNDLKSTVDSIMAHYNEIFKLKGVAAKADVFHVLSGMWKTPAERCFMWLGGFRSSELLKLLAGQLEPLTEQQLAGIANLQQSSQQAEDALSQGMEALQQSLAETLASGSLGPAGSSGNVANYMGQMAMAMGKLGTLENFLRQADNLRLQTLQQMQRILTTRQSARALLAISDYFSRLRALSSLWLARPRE

[4] = molecular target: T4, OsTGA3 (yeast two-hybrid fusion) (rice (Oryza sativa)) (UniProt Q6IVC3); assay: as above
T4 sequence: T1 sequence

| Substance | binding [1] | binding [2] | binding [3] | binding [4] |
| --- | --- | --- | --- | --- |
| OsNH5, rice NPR1 homolog 5 (BiFC nYFP fusion) | binds weakly |  |  |  |
| OsNH5, rice NPR1 homolog 5 (yeast two-hybrid fusion) |  | no binding | no binding | no binding |
